# Laboratory results published in patent US20180187207.
# Chains of the proteins cited; added tags and fusions are not shown. A line that says so, or that is headed by a name, gives the form on record, which may keep a tag or linker.
# GRP7 and/or GRP8 (antibody recognizes both) (Arabidopsis thaliana), one chain, as listed by the source: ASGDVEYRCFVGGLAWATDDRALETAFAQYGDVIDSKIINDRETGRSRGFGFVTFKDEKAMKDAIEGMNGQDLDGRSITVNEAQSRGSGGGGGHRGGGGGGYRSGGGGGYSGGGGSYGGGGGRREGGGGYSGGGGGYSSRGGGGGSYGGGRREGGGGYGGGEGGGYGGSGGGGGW
# Tested on: GRP7 and/or GRP8 (antibody recognizes both) (Arabidopsis thaliana)
# Experiment: pull-down
# Conditions: RIP-qPCR positive control, significant over IgG; protein in cells; protein details: native, formaldehyde-crosslinked roots
sequence,measurement,value
AACCCUAGUUAUUACGUCACACCUGUUCUAUAAAUUAAGGCUGCGUCUUAUCACCUCAAAUCACAUAAGUCUCUCUCUUACAUUUUGAAACCCUAAUUUCUCUUCUUUUCCCCAAAAAAAAAUGUCUGAAGUUGAGUACCGGUGCUUUGUCGGCGGCCUUGCCUGGGCCACCAAUGAUGAAGAUCUUCAAAGGACGUUCUCACAGUUCGGCGACGUUAUCGAUUCUAAGAUCAUUAACGACCGCGAGAGUGGAAGAUCAAGGGGAUUCGGAUUCGUCACCUUCAAGGACGAGAAAGCCAUGAGGGAUGCGAUUGAAGAGAUGAACGGUAAAGAGCUCGAUGGACGUGUCAUCACCGUGAACGAGGCUCAGUCGAGAGGUAGCGGCGGUGGCGGAGGAGGCCGUGGUGGAAGCGGUGGUGGUUACCGCAGCGGAGGCGGUGGUGGAUACUCAGGAGGCGGUGGCGGCGGAUACUCAGGAGGAGGCGGUGGUGGUUACGAGAGACGUAGCGGAGGUUACGGAUCUGGUGGAGGCGGUGGUGGCCGAGGAUACGGUGGUGGUGGACGCCGUGAGGGAGGUGGCUACGGAGGCGGUGAUGGUGGAAGUUACGGAGGCGGUGGUGGCGGCUGGUAAUCAAAGAUAGAGUUGUUUGCGUGCUGCUGCUCUGUUUUUGGUUUAGAUUUGGUUUUGUGUCACCACUUCUGGUUUGGUUAUCGUUCGUUUGGUUUACUUUUUUGAUGAAACAGUUUCGUUUAAGUCUUCUUUGUCUGGAACGAAAUGUUAAUUCGCGUGUUGUUUACUAAAUUUAUAACGUUUCCUUUUAACCAGAUUCGAGAUUUUCCCUCAAAUAAUUUAUCUUGUUAGACACAUGUAUUUAAUCGAACAGCAGCUAAAGGAUUC [GRP8 transcript],binding result,binds

# The exact form of at least one protein or probe is not confirmed. Where cells or extracts were used, other partners may take part.
